# Assay results as given in PubChem BioAssay (NCATS).
# Inconclusive means that the source gave no clear call. Such entries were picked first, then a sample of the others. Potencies of inconclusive entries are doubtful fits and often do not repeat. Active and inactive are the calls of the source. Calls follow the shape of the dose curve; as a rule, active = well fitted inhibition curve with a large enough effect; inconclusive = small, poorly fitted or top-dose-only effect, or effect the other way; inactive = no such curve, though single readings can be large or run the other way.
# Assay: qHTS Assay for Inhibitors of Fructose-1,6-bisphosphate Aldolase from Giardia Lamblia: Giardia lamblia growth inhibition (AID 2785); also: nearly all actives have a fitted effect of over 70% in size
# Details: Giardia lamblia trophozoite growth inhibition; activity change, negative = inhibition: at 57.5 µM (top of the series)
# Summary of the method: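 Whole-parasite growth test: Giardia WB trophozoites in TYI-S-33 (pH 7.0), 100 per well, incubated 48 h at 37C with compound. ATP content was read by ATPlite luminescence.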
# % is scaled to controls: 0 for no effect and ±100 for the full control effect; potency is read from the fitted curve at half-maximal effect.
SMILES,Potency,"activity change, negative = inhibition"
Cc1ncoc1C(=O)Nc1ncc([N+](=O)[O-])s1,"inconclusive: 3.16 µM [inhibitor, full curve, poor fit]",–
COc1ccc(CNc2ncc(-c3cccc([N+](=O)[O-])c3)n2C)c(OC)c1OC,"inconclusive: 44.7 µM [inhibitor, partial curve]",–
Cc1ccc(-n2nc3c(=S)[nH]nc(C)c3c2C)cc1,–,inactive: -4.84%
CCc1ccc(Cc2cnc(NC(=O)C3=NCCN3)s2)cc1,"inconclusive: 63.1 µM [inhibitor, single point]",–
O=C(Nc1ccc(F)cc1F)c1cc(=O)n(-c2ccccc2)c(=O)[nH]1,–,inactive: 27%
O=C(NC1CCCCCC1)C(=S)NC1CCCCC1,"inconclusive: 63.1 µM [inhibitor, single point]",–
Cc1cc(C)nc(N/N=C/c2ccccc2OCC(=O)O)n1,–,inactive: 9.74% [at 38.3 µM]
Cc1cccc2c(N)c3c(nc12)N(C)CC3,–,inconclusive: 30.4% [activator]
O=C(Nc1nnc(-c2ccncc2)o1)c1ccccc1,active: 8.91 µM,–
O=C(CSc1ccccc1)Nc1nnc(C2CC2)s1,"inconclusive: 3.98 µM [inhibitor, single point]",–
O=C(Nc1nnc(C2=COCCO2)o1)c1ccc(S(=O)(=O)N2CCCCC2)cc1,"inconclusive: 63.1 µM [inhibitor, single point]",–
C/C(=N\NC(N)=S)c1ccc2c(c1)OCCO2,"inconclusive: 178 µM [inhibitor, partial curve, poor fit]",–
Cc1ccc(S(=O)(=O)N2CCCCC2)cc1NC(=O)CNCc1ccco1,"inconclusive: 63.1 µM [inhibitor, single point]",–
CC(=O)N1CCC(=NNc2nc3ccccc3[nH]2)CC1,"inconclusive: 3.98 µM [inhibitor, single point]",–
O=C1CS/C(=N/N=C\c2ccn[nH]2)N1,–,inconclusive: 48.9% [activator]
Cc1cccc(C)c1OCCCn1ccnc1,–,inactive: 8.71%
Cc1cccc(NC(=S)Nn2cnnc2)c1C,–,inconclusive: 34% [activator]

SMILES,Potency,"activity change, negative = inhibition"
CCOc1ccc(/C=N/Nc2nc(=O)[nH]nc2C)cc1OC,"inconclusive: 7.94 µM [inhibitor, partial curve, poor fit]",–
Cc1cc(C)n(NC(=S)NC2CCCC2)c(=O)c1C#N,–,inactive: 5.07%
Oc1[nH]c2ccc(Br)cc2c1N=Nc1nn[nH]n1,"inconclusive: 8.91 µM [inhibitor, partial curve, poor fit]",–
COc1ccc(CN2CCN(Cc3ccco3)CC2)c(OC)c1,–,inconclusive: 59.4% [activator]
O=C(CSc1cccc[n+]1[O-])CSc1cccc[n+]1[O-],–,inactive: -0.53% [at 10.4 µM]
Cc1csc(NC(=S)NC(=O)c2ccccc2)n1,"inconclusive: 63.1 µM [inhibitor, partial curve, poor fit]",–
COc1cccc(NC(=S)Nc2ccc(O)cc2)c1,–,inactive: 18.7%
O=C(Nc1nnc(C2=COCCO2)o1)c1ccc(F)cc1,"inconclusive: 7.94 µM [inhibitor, partial curve, poor fit]",–
CCOC(=O)c1cnc(-c2ccc(C(F)(F)F)cn2)[nH]c1=O,"inconclusive: 25.1 µM [inhibitor, partial curve, poor fit]",–
O=C(NC(=S)Nc1ccc(Cl)cn1)c1cc([N+](=O)[O-])ccc1N1CCOCC1,–,inactive: 14.8%
COCCN(C(=S)Nc1ccc(OC)c(Cl)c1)C1CCN(C(C)C)CC1,"inconclusive: 7.08 µM [inhibitor, single point]",–
CSc1cccc(NC(=S)N2CCC(N(C)C3CCCCC3)CC2)c1,"inconclusive: 6.31 µM [inhibitor, partial curve, poor fit]",–
Cc1ccc(C(=O)N/N=C\c2ccc([N+](=O)[O-])o2)cn1,active: 3.16 µM,–
CC(C)c1cccc(OCCCCN(C)C)c1,"inconclusive: 7.94 µM [inhibitor, single point]",–
N#Cc1cc2cc3c(cc2nc1N1CCCCC1)OCCO3,active: 56.2 µM,–
Cc1ccc(C)c(N2CCN(CCN3CCCCC3)CC2)c1,"inconclusive: 70.8 µM [inhibitor, partial curve, poor fit]",–
COc1cc(CNn2cn[nH]c2=S)ccc1OCC(=O)NC(C)(C)C,"inconclusive: 7.94 µM [inhibitor, single point]",–

# Entries of single compounds, looked up by structure.
# O=C1CS/C(=N/N=C\c2ccn[nH]2)N1 in the list: activity change, negative = inhibition: inconclusive: 48.9% [activator]
# Cc1ccc(C(=O)N/N=C\c2ccc([N+](=O)[O-])o2)cn1 in the list: Potency: active: 3.16 µM
# Cc1ccc(-n2nc3c(=S)[nH]nc(C)c3c2C)cc1 in the list: activity change, negative = inhibition: inactive: -4.84%
